Reference: US20200017592A1
Changes are numbered by the printed parent chain. Results are given in words; binding and its absence hold for the method and conditions named. Some binding calls cover weakened binding; strength is not graded here. Where a sequence is shown, tags or fusion partners need not be part of it.

Amino acid sequences for entries named in this document (tags omitted). A change or cut given only in a name is not applied to a line headed by its entry.
UniProt Q9NPH3: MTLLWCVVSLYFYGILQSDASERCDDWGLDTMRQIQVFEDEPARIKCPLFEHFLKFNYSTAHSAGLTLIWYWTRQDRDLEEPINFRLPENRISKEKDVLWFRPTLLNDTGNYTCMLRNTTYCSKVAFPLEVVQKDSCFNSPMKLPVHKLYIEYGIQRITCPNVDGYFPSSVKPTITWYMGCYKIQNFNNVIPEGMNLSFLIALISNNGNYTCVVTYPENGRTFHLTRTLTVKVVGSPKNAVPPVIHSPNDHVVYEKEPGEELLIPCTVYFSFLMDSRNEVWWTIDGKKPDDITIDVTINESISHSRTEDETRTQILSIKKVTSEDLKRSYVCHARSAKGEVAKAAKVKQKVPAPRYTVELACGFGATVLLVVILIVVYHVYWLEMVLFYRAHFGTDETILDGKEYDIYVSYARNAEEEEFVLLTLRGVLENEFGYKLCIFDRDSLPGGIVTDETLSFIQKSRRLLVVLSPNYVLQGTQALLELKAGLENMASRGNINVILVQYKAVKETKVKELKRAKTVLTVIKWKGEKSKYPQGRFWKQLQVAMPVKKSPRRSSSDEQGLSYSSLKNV

T1: in-line fusion protein of human IL-36R extracellular domain and IL1RAcP extracellular domain expressed with mouse IgG2a Fc tag (human; mouse) (UniProt Q9HB29+Q9NPH3)
T1 sequence (looked up): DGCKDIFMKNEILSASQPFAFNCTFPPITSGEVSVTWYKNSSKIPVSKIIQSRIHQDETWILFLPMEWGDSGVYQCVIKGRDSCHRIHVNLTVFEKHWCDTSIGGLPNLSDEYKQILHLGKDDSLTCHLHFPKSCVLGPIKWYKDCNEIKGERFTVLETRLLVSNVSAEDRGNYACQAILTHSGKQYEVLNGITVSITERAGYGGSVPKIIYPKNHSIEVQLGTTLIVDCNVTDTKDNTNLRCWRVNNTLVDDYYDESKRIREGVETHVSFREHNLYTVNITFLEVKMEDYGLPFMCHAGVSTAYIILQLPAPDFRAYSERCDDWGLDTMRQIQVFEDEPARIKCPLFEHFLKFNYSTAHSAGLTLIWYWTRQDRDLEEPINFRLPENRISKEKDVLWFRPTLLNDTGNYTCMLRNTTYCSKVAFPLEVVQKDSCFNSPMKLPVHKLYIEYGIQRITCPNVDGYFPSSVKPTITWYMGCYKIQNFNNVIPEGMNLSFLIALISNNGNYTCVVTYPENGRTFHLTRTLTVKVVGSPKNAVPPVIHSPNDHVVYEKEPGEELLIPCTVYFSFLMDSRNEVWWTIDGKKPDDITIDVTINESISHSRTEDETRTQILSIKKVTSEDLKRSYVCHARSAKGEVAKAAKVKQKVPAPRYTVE

B1: H4H14699P2 (antibody, human IgG4 S228P, kappa, V domains shown)
VH: EVQLVESGGGLVQPGRSLRLSCAASGFTFDDYAIHWVRQAPGKGLEWVSVISWNSDIIGYADSVKGRFTVSRDNAKNSLYLQMNSLRTEDTALYYCAKGYNWNFFDYWGQGTLVTVSS
VL: EIVLTQSPATLSLSPGERATLSCRASQSVSSYLAWYQQKPGQAPRLLIYNAANRATDIPARFSGSGSGTDFTLTISSLEPEDFAVYYCQQRSNWPLTFGGGTKVEIKR
B2: H4H14700P2 (antibody, human IgG4 S228P, kappa, V domains shown)
VH: B1 VH with I34M, A40T, I57V, G59A, A61S, V70I, R87G, Y100H
VL: B1 VL with A51V, S77G, Y87F
B3: H4H14706P2 (antibody, human IgG4 S228P, kappa, V domains shown)
VH: B1 VH with A23T, A40S, I57V, V70I, T88A
VL: B1 VL
B4: H4H14708P2 (antibody, human IgG4 S228P, kappa, V domains shown)
VH: B1 VH with G10D, I34M, I57V, G59A, A61S, V70I, A97T, Y100H, N101K, N103S
VL: B1 VL with V29I, Y49F, A51V
B5: H4H14709P (antibody, human IgG4 S228P, kappa, V domains shown)
VH: EVQLVESGGGLVQPGGSLRLSCAASGFTFSDYAMSWVRQAPGKGLEWVSGISGNGGDTYYGDFVKGRFTISRDNSKNTLYLQMNSLRGEDTAAYFCVIDLDYWGQGTLVTVSS
VL: DIQMTQSPSTLSASEGDRVTITCRASQSISSWLAWYQQKPGKAPRLLIYKASILGDGVPSRFSGSGSGTEFTLTISSLQPDDFATYYCHQYNSYLWTFGQGTKVEIKR
B6: H4H14728P (antibody, human IgG4 S228P, kappa, V domains shown)
VH: QVQLQESGPGLVKPSQTLSLTCTVSGGSISSADYYWSWIRQHPGKGLEWIGSIYYTGSTYYNPSLKSRLTISIDTSENQFSLKLTSLTAADTAVYYCASEEANWGSHFDSWGQGTLVTVSS
VL: DIQMTQSPSSLSASVGDRVTITCRASQSIDNFLNWYQQKPGKAPKLLIYAASSLQSGVPSRFSGSGSGTDFTLTISSLQPEDFASYYCQHSHSAHPITFGQGTRLEIKR
B7: H4H14731P (antibody, human IgG4 S228P, kappa, V domains shown)
VH: QLQLQESGPGLVKPSETLSLTCTVSGGSISSSNYYWGWIRQPPGKRLEWIGSIYYSGSTYYNPSLKTRVTISVDTSKNQFSLKLTSVTAADTAVYYCAREEAAALTHFDFWGQGTLVTVSS
VL: B6 VL with D30S, F32Y, Y49F, S85T, A94S
B8: H4H14757P (antibody, human IgG4 S228P, kappa, V domains shown)
VH: EVQLVESGGGLVQPGRSLRLSCTASGFTFDDYAMHWVRQAPGKGLEWVSGIRWNGGSIGYVDSVKGRFTISRDNAKKSLHLQMNSLKTEDTALYYCAKDIGDILTGFYGEYGMDVWGQGTTVTVSS
VL: DIQMTQSPSSLSASEGDRVTITCRASQSISSYLNWYQQKAGKAPNLLIYAASSLQSGVPSRFSGSGSGTEYTLTISSLQPEDFATYYCQQSYIIPYTFGQGTKLEIKR
B9: H4H14758P (antibody, human IgG4 S228P, kappa, V domains shown)
VH: EVQLVESGGGLVQPGRSLRLSCAASGFTFDDYAMHWVRQAPGKGLEWVSSVRWNGGIIGYADSVKGRFTISRDNAKNSLYLQMNSLRPEDTALYYCAKDIGDVLTGYYGEYGMDVWGQGTTVTVSS
VL: B8 VL with E15V, T22A, S30T, S31T, A40P, N45K, E70D, Y71F, I94S

Each binder was assayed against T1, in-line fusion protein of human IL-36R extracellular domain and IL1RAcP extracellular domain expressed with mouse IgG2a Fc tag (human; mouse) (assay: SPR (Biacore 4000), 25°C and 37°C).

binding, binds:
B1
B2
B3
B4
B5
B6
B7
B8
B9
